Patent publication US8075874B2, “Methods for disinfecting and removing smear layer from tooth surfaces” (Dentsply International, Inc., priority 2002, dated 2011)
At least one compound was matched to its structure with a doubt left.

System: Enterococcus faecalis
Assay: Minimum inhibitory concentration (serial dilution, turbidity)
Type: cell-based
Protocol: In the second test, the minimum inhibitory concentration (MIC) was measured. E. faecalis was cultured overnight and the concentration was adjusted to 0.11 O.D. at 570 nm. The test solutions were serially diluted from 1:2 up to 1:2048 dilutions. One ml of 2× trypticase soy broth (TSB) and the same amount of a test solution were mixed in various tubes. One hundred microliters of the standardized E. faecalis was added into each of the test tubes and were incubated overnight at 37° C. The presence or absence of turbidity was determined the following day.

[Na+].[O-]Cl [5.25% NaOCl, sodium hypochlorite]
dilution up to which solution is effective (minimum inhibitory concentration test) (E. faecalis, overnight at 37° C., turbidity): up to 1:32 dilution
dilution limit of antimicrobial / bactericidal effect (summary statement in description): about 1:32 dilution
